The supplement of paper PMC12819154, “High-throughput peptide-centric local stability assay extends protein–ligand identification to membrane proteins, tissues and bacteria” (Nature Structural & Molecular Biology, 2025)
The list shows a part of the results. Small differences around the control level are noise.

Chains of the proteins cited; added tags and fusions are not shown. Lines headed by an entry give the natural chain unless they say otherwise; changes in a name come on top.
UniProt Q8BJA3: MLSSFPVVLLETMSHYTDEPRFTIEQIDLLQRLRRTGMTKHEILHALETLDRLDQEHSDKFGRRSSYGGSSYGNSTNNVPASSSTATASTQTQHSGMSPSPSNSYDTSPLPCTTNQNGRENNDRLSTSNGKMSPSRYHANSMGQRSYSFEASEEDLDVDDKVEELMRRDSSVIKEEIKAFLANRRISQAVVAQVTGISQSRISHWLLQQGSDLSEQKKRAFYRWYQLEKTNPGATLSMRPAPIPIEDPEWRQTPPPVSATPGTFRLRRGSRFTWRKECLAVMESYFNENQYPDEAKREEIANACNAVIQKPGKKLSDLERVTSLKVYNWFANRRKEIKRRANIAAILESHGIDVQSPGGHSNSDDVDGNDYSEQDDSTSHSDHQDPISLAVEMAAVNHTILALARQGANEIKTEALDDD
UniProt Q8BSA9: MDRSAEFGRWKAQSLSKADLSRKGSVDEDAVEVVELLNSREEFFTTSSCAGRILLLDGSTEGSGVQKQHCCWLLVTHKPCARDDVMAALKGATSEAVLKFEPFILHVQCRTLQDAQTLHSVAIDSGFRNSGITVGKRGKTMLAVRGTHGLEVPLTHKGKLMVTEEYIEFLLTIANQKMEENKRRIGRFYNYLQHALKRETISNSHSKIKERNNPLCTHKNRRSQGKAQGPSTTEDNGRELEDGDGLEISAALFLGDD
UniProt Q8BL97: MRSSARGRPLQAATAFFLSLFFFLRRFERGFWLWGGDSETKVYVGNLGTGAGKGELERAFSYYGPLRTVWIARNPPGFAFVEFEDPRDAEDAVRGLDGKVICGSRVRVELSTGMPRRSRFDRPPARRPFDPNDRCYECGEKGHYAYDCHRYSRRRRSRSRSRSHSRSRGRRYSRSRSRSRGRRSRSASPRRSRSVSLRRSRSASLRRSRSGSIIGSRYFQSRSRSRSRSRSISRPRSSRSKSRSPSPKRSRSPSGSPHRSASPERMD
UniProt Q8BMJ7: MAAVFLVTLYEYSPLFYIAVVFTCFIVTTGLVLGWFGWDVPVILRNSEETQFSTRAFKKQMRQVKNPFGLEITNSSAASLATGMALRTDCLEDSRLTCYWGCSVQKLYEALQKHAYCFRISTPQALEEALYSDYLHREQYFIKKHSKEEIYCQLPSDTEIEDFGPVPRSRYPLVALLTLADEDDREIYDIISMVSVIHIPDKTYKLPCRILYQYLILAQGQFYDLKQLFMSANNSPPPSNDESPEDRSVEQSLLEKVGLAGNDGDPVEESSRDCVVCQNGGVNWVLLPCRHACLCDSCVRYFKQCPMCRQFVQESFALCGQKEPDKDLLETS

Compound: CN[C@@H]1C[C@H]2O[C@@](C)([C@@H]1OC)n1c3ccccc3c3c4c(c5c6ccccc6n2c5c31)C(=O)NC4 [staurosporine]
Assay: log2 fold change of tryptic peptide abundance, ligand vs vehicle (limited proteolysis) (log2 ratio); higher = more trypsin-susceptible (destabilized)
Conditions: ligand concentration: 20 uM; sample: mouse liver crude lysate; replicate design: treated separately

| Target | log2 fold change |
| --- | --- |
| UniProt Q8BJA3 (peptide sequence: REEIANACNAVIQKPGK, peptide start residue: 297) | 1.18 |
| UniProt Q8BSA9 (peptide sequence: NNPLCTHK, peptide start residue: 212) | -0.26 |
| UniProt Q8BL97 (peptide sequence: VYVGNLGTGAGKGELER, peptide start residue: 42) | -0.172 |
| UniProt Q8BMJ7 (peptide sequence: YFKQCPMCR, peptide start residue: 301) | -0.159 |
